The values that follow are results of earlier work, collected in patent publication US6451784B1 (priority 1996, dated 2002).

The subject of the data set is patients. As to conditions: cited from earlier work.

As for `CC[C@]1(O)C[C@@H]2CN(CCc3c([nH]c4ccccc34)[C@@](C(=O)OC)(c3cc4c(cc3OC)N(C)[C@H]3[C@@](O)(C(=O)OC)[C@H](OC(C)=O)[C@]5(CC)C=CCN6CC[C@]43[C@@H]65)C2)C1` [Vinblastine], the “Pulmonary toxicity of the IV administered drug” value is listed as “no pulmonary toxicity noted”.
